Measurements as given in the supplement of paper PMC11061612.

Tested on: IGROV-1 (Ovarian Carcinoma)
Assay: combination Emax (second highest fraction inhibited in the dose matrix, 72 h); higher = more inhibition; extreme values may be limits of the assay
Method in brief: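 Bliss excess equals the observed combination effect minus the expected value EA + EB − EA·EB, where EA and EB are the effects of each agent alone. Combination Emax is the second-highest inhibition within the matrix. Inhibition was scaled from CellTiter-Glo 2.0 luminescence, with 0 set by vehicle wells and 1 by blank wells, after 72 hours of two-drug dosing of cells plated in 1536-well plates.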

Compound: COc1cc2ncnc(Nc3ccc(F)c(Cl)c3)c2cc1OCCCN1CCOCC1 [Gefitinib] + CC(C)n1c(=O)n(C)c2cnc3cc(F)c(-c4ccc(OCCCN5CCCCC5)nc4)cc3c21 [AZD1390] (first compound max 10 µM, 7x7, partner max 0.3 µM)
- combination Emax: 0.618
